According to PubChem BioAssay AID226 (DTP/NCI, 2004):
The list shows only some results of the screen, not a fair sample: it gathers tests that were run many times, whatever their T/C, doses with no T/C, and many T/C values between a quarter and a half above the control. Further doses and runs are listed elsewhere. T/C gives the treated animals as a percentage of the vehicle group. Some entries give survivors of the animals treated and no T/C: the source files T/C as zero there, which appears to mark a toxic dose or a test without result, not a measured value. Some survivor counts are full or nearly so, which does not show that the dose was tolerated: survival well below the control is almost never listed, so the zero probably covers shortened survival too. Survivors were counted at the toxicity check, usually on the fifth day, unless a day is given; later deaths do not show. Schedules are NCI's codes, taken here to give the interval after Q, in days (D) or hours (H), and the number of doses after X. Some doses were run more than once; the values are given in rising order. Some structures stand for samples that the source files as different forms (salt, stereo form or complex); doses refer to the form tested. For survival time, the PubChem record calls one and a half times the control and up active, and a quarter to a half above the control has no call in these data; cut-offs in other NCI protocols can differ. Some T/C values carry the count of animals alive at the toxicity check (mostly the fifth day); where none is given, no animal had died by that day.

Test system: B6C3F1 mice, intracerebral ependymoblastoma, median survival T/C
Experiment: NCI In Vivo Anticancer Drug Screen. Data for tumor model Ependymoblastoma (intracerebral) in B6C3F1 mice
Settings: T/C endpoint: median survival time, higher T/C = longer survival
Experimental: The antitumor activity of compounds was measured in mice bearing transplantable tumors. Survival or tumor size were measured and the results are expressed as the measurement made in the treated group (T) divided by the measurement made in the vehicle treated control group (C). The tumor model used in this assay is Ependymoblastoma (intracerebral) in B6C3F1 mice

[1] = dose: 16.0 mg/kg/injection, schedule: Q01DX005 (ip), vehicle: saline with Tween-80
[2] = dose: 64.0 mg/kg/injection, schedule: Q01DX005 (ip), vehicle: saline with Tween-80
[3] = dose: 128.0 mg/kg/injection, schedule: Q01DX005 (ip), vehicle: saline with Tween-80
[4] = dose: 256.0 mg/kg/injection, schedule: Q01DX005 (ip), vehicle: saline with Tween-80
[5] = dose: 32.0 mg/kg/injection, schedule: Q01DX005 (ip), vehicle: saline with Tween-80
[6] = dose: 64.0 mg/kg/injection, schedule: Q01DX005 (ip), vehicle: Klucel (hydroxypropylcellulose) (HPC)
[7] = dose: 12.5 mg/kg/injection, schedule: Q01DX005 (ip), vehicle: Klucel (hydroxypropylcellulose) (HPC)
[8] = dose: 24.0 mg/kg/injection, schedule: Q01DX005 (ip), vehicle: saline with Tween-80

SMILES: CN(N=O)C(=O)Nc1c[nH]c(=O)[nH]c1=O
- T/C (dose: 8.0 mg/kg/injection, schedule: Q01DX005 (ip), vehicle: saline with Tween-80): 125 % of control
- T/C [1]: 128 % of control
- T/C (dose: 32.0 mg/kg/injection, schedule: Q01DX005 (ip), vehicle: saline with Tween-80, evaluated on day 40): 142 % of control
- T/C (dose: 32.0 mg/kg/injection, schedule: Q01DX005 (ip), vehicle: saline with Tween-80, evaluated on day 60): 127 % of control
- T/C [2]: 143 % of control [9 of 10 alive]
- survivor count [2]: 10 of 10
- survivor count [3]: 9 of 10
- survivor count [4]: 0 of 10

SMILES: COC(=O)c1ccc(N=NN(C)C)cc1
- T/C (dose: 16.0 mg/kg/injection, schedule: Q01DX005 (ip), vehicle: saline + alcohol): 125 % of control
- T/C (dose: 32.0 mg/kg/injection, schedule: Q01DX005 (ip), vehicle: saline + alcohol): 130 and 144 % of control

SMILES: COc1nc(C(Cl)(Cl)Cl)c(Cl)c(OC)c1Cl
- survivor count (dose: 200.0 mg/kg/injection, schedule: Q01DX005 (ip), vehicle: Klucel (hydroxypropylcellulose) (HPC)): 9 of 10
- survivor count (dose: 400.0 mg/kg/injection, schedule: Q01DX005 (ip), vehicle: Klucel (hydroxypropylcellulose) (HPC)): 3 of 10

SMILES: CN=NNc1nc[nH]c1C(N)=O
- T/C (dose: 128.0 mg/kg/injection, schedule: Q01DX005 (ip), vehicle: saline): 138 % of control

SMILES: CCCN(C)/N=N/c1nc[nH]c1C(N)=O
- T/C [1]: 130 % of control
- T/C [5]: 137 % of control
- T/C [2]: 144 % of control

SMILES: [Cl][Pt+2][Cl].[NH-]C1CCC1.[NH-]C1CCC1
- survivor count (dose: 40.0 mg/kg/injection, schedule: Q01DX005 (ip), vehicle: dextrose): 8 of 10
- survivor count (dose: 160.0 mg/kg/injection, schedule: Q01DX005 (ip), vehicle: dextrose): 8 of 10

SMILES: Cc1cn(C2CC(O)C(CO)O2)c(=O)[nH]c1=O (stereo not drawn)
- survivor count (dose: 6000.0 mg/kg/injection, schedule: Q04DX003 (ip), vehicle: saline with Tween-80): 4 of 10 on day 6
- survivor count (dose: 6400.0 mg/kg/injection, schedule: Q01DX005 (ip), vehicle: saline with Tween-80): 7 of 10

SMILES: CC(C)NCC(O)COc1cccc2ccccc12 (stereo not drawn)
- survivor count [3]: 6 of 10
- survivor count (dose: 128.0 mg/kg/injection, schedule: Q01DX009 (ip), vehicle: saline with Tween-80): 2 of 10
- survivor count [4]: 0 of 10
- survivor count (dose: 256.0 mg/kg/injection, schedule: Q01DX009 (ip), vehicle: saline with Tween-80): 0 of 10

SMILES: CN(N=O)C(=O)N[C@@H](C=O)[C@@H](O)[C@H](O)[C@H](O)CO
- T/C (dose: 32.0 mg/kg/injection, schedule: Q01DX005 (ip), vehicle: other): 130 % of control
- T/C (dose: 50.0 mg/kg/injection, schedule: Q01DX005 (ip), vehicle: saline): 134 % of control
- T/C (dose: 50.0 mg/kg/injection, schedule: Q01DX009 (ip), vehicle: citric acid): 125 % of control [8 of 9 alive]
- T/C (dose: 64.0 mg/kg/injection, schedule: Q01DX005 (ip), vehicle: other): 136 % of control
- survivor count (dose: 100.0 mg/kg/injection, schedule: Q01DX009 (ip), vehicle: citric acid): 9 of 10
- survivor count (dose: 128.0 mg/kg/injection, schedule: Q01DX005 (ip), vehicle: other): 10 of 10
- T/C (dose: 150.0 mg/kg/injection, schedule: Q01DX001 (ip), vehicle: saline): 136 % of control
- survivor count (dose: 200.0 mg/kg/injection, schedule: Q01DX009 (ip), vehicle: citric acid): 5 of 10
- survivor count (dose: 256.0 mg/kg/injection, schedule: Q01DX005 (ip), vehicle: other): 9 of 10
- T/C (dose: 300.0 mg/kg/injection, schedule: Q01DX001 (ip), vehicle: saline): 141 % of control
- survivor count (dose: 500.0 mg/kg/injection, schedule: Q01DX001 (ip), vehicle: saline): 8 of 10
- survivor count (dose: 512.0 mg/kg/injection, schedule: Q01DX005 (ip), vehicle: other): 0 of 10
- survivor count (dose: 1024.0 mg/kg/injection, schedule: Q01DX001 (ip), vehicle: other): 6 of 10

SMILES: Cc1[nH]c(=O)[nH]c(=O)c1N(CCF)CCCl
- survivor count [5]: 9 of 10
- survivor count [6]: 1 of 10 and 10 of 10
- survivor count [2]: 0 of 10 and 7 of 10

SMILES: CCOC(=O)C(CC(C)C)NC(=O)C(Cc1ccc(N(CCCl)CCCl)cc1)NC(C)=O (stereo not drawn)
- T/C [5]: 130 % of control
- survivor count [6]: 10 of 10
- T/C [2]: 134 % of control
- survivor count (dose: 128.0 mg/kg/injection, schedule: Q01DX005 (ip), vehicle: Klucel (hydroxypropylcellulose) (HPC)): 5 of 10
- survivor count [3]: 9 of 10 and 10 of 10

SMILES: CN1CCC23c4c5ccc(O)c4OC2C(O)C=CC3C1C5 (stereo not drawn)
- survivor count (dose: 256.0 mg/kg/injection, schedule: Q01DX005 (ip), vehicle: saline): 1 of 5

SMILES: O=C1c2ccccc2C(=O)c2c(NCCNCCO)ccc(NCCNCCO)c21
- survivor count [5]: 10 of 10
- survivor count [2]: 8 of 10
- survivor count (dose: 64.0 mg/kg/injection, schedule: Q04DX003 (ip), vehicle: water): 10 of 10
- survivor count (dose: 128.0 mg/kg/injection, schedule: Q04DX003 (ip), vehicle: water): 3 of 10

SMILES: CCOC(=O)CC(SP(=S)(OC)OC)C(=O)OCC (stereo not drawn)
- survivor count (dose: 400.0 mg/kg/injection, schedule: Q01DX005 (ip), vehicle: suspension in saline): 1 of 10

SMILES: CCC(=O)OCC1OC(n2cnc3c(=S)nc(N)[nH]c32)C(OC(=O)CC)C1OC(=O)CC (stereo not drawn)
- survivor count (dose: 6.25 mg/kg/injection, schedule: Q01DX005 (ip), vehicle: Klucel (hydroxypropylcellulose) (HPC)): 10 of 10
- T/C [7]: 134 % of control
- survivor count [7]: 9 of 10
- survivor count (dose: 25.0 mg/kg/injection, schedule: Q01DX005 (ip), vehicle: Klucel (hydroxypropylcellulose) (HPC)): 9 of 10 and 10 of 10
- survivor count (dose: 50.0 mg/kg/injection, schedule: Q01DX005 (ip), vehicle: Klucel (hydroxypropylcellulose) (HPC)): 9 of 10
- survivor count (dose: 100.0 mg/kg/injection, schedule: Q01DX005 (ip), vehicle: Klucel (hydroxypropylcellulose) (HPC)): 9 of 10

SMILES: Nc1ncnc2nc[nH]c12
- survivor count (dose: 512.0 mg/kg/injection, schedule: Q01DX005 (ip), vehicle: Klucel (hydroxypropylcellulose) (HPC)): 5 of 10
- survivor count (dose: 1024.0 mg/kg/injection, schedule: Q01DX005 (ip), vehicle: Klucel (hydroxypropylcellulose) (HPC)): 0 of 10

SMILES: CC(C)(C)N1CC1CNC(=O)C(=O)NCC1CN1C(C)(C)C (stereo not drawn)
- T/C (dose: 12.5 mg/kg/injection, schedule: Q01DX005 (ip), vehicle: saline with Tween-80): 127 % of control
- T/C [8]: 140 % of control
- survivor count [8]: 10 of 10
- survivor count (dose: 25.0 mg/kg/injection, schedule: Q01DX005 (ip), vehicle: saline with Tween-80): 9 of 10
- survivor count (dose: 50.0 mg/kg/injection, schedule: Q01DX005 (ip), vehicle: saline with Tween-80): 6 of 10
- survivor count (dose: 100.0 mg/kg/injection, schedule: Q01DX005 (ip), vehicle: saline with Tween-80): 0 of 10

SMILES: NC(=S)c1cn(C2OC(CO)C(O)C2O)c2ncnc(N)c12 (stereo not drawn)
- survivor count (dose: 15.0 mg/kg/injection, schedule: Q01DX005 (ip), vehicle: suspension in saline): 3 of 10

SMILES: NC(=O)c1csc(C2OC(CO)C(O)C2O)n1 (stereo not drawn)
- T/C (dose: 300.0 mg/kg/injection, schedule: Q01DX009 (ip), vehicle: saline): 137 % of control
- T/C (dose: 600.0 mg/kg/injection, schedule: Q01DX009 (ip), vehicle: saline): 132 % of control
